In PubChem BioAssay AID504834 (National Center for Advancing Translational Sciences (NCATS), 2011):
Hit rate of the full screen: of about 320,000 compounds, about 22,000 (6.9%) were called active. The inconclusive results got no clear call from the source; some entries with a clear call stand among them for comparison. The call rests on the fitted dose curve; in most records, active means well fitted inhibition curve with a large enough effect; inconclusive means small, poorly fitted or top-dose-only effect, or another doubt; inactive means no such curve, though single readings can be large or run the other way. Where the call is inconclusive, the potency comes from a doubtful curve fit.
On the % scale 0 is the no-effect control and ±100 the full control effect; potency means the concentration at half of the fitted maximal effect.

Test: Primary qHTS for delayed death inhibitors of the malarial parasite plastid, 96 hour incubation
Settings: P. falciparum luciferase reporter growth; series mostly up to 28.7 µM; activity change, negative = inhibition: at the top concentration
How it was run: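 Cell-based qHTS: luciferase-tagged P. falciparum in erythrocytes (2% hematocrit, 0.05% parasitemia final) incubated with compounds for 96 hours, 37 C, 5% CO2; luciferase detection reagent then added and luminescence measured.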
With Cc1ccc(C)c(S(=O)(=O)Nc2ccc(O)c(Sc3ncn[nH]3)c2)c1 the “activity change, negative = inhibition” value was inactive: 4.8%. For CC(=O)N1CCN(c2ccc(Nc3nc(C)nc4c3oc3ccccc34)cc2)CC1, the Potency was inconclusive: 11.7 µM [inhibitor, single point]. In the case of COc1ccccc1NS(=O)(=O)c1cc(NC(=O)c2sc3cc(Cl)ccc3c2Cl)ccc1C, the Potency is reported as inconclusive: 0.0029 µM [inhibitor, full curve, poor fit]. For CCCCCCCC[n+]1cccc(C(=O)N(CC)CC)c1, the Potency was active: 8.28 µM. In the case of Nc1nonc1-c1noc(COc2ccccc2Cl)n1, the Potency is reported as inconclusive: 4.65 µM [inhibitor, partial curve, poor fit]. In the case of COc1ccc(CNc2nc(NCc3ccc(OC)c(OC)c3)n(C(=O)c3cccs3)n2)cc1OC, the Potency is reported as active: 7.38 µM. In the case of COc1ccc(Nc2ncccc2C(=O)NCc2ccccc2)cc1, the Potency is reported as inconclusive: 18.5 µM [inhibitor, single point]. With O=C(Nc1ccc(N2CCOCC2)cc1)c1ccc([N+](=O)[O-])o1 the “activity change, negative = inhibition” value was inactive: 21.3%. With COc1ccccc1C(=O)Nc1nnc(SCC(=O)NC2CCCC2)s1 the “activity change, negative = inhibition” value was inactive: 105%. In the case of CCCOC(=O)CCCCCCCCC(O)CN1CCCCC1 (centres undefined), the Potency is reported as inconclusive: 0.233 µM [inhibitor, full curve, poor fit]. For CCOC(=O)c1cnc(SCCc2ccccc2)nc1N, the “activity change, negative = inhibition” value was inactive: 3.38%. With COc1ccc(OC)c(C2C(C(=O)c3ccc(C)o3)=C(O)C(=O)N2CCN2CCOCC2)c1 (centres undefined) the Potency was inconclusive: 18.5 µM [inhibitor, single point]. In the case of Cc1cnc(NC(=O)CSc2nnc(COc3c(C)cccc3C)o2)s1, the Potency is reported as inconclusive: 9.28 µM [inhibitor, partial curve]. For O=C(CC(c1ccccc1)c1ccccc1O)N1CCCCC1 (centres undefined), the Potency was inconclusive: 9.28 µM [inhibitor, partial curve, poor fit]. In the case of CN(C)c1ccc(-[n+]2c(-c3ccccc3)cc(-c3ccccc3)cc2-c2ccccc2)cc1, the Potency is reported as inconclusive: 0.415 µM [inhibitor, full curve, poor fit]. In the case of Cc1cc(C)n(-c2nncn2/N=C/c2ccccc2F)n1, the Potency is reported as inconclusive: 6.57 µM [inhibitor, single point]. With CC1CCC(C(C)C)C(OC(=O)COC(=O)c2ccccc2N)C1 (centres undefined) the Potency was inconclusive: 18.5 µM [inhibitor, single point]. In the case of O=c1[nH]cnc2c1nc(NCc1ccccc1)n2C1O[C@@H](CO)[C@H](O)[C@@H]1O (some centres undefined), the “activity change, negative = inhibition” value is reported as inactive: 25.3%. With CCCC1(c2ccccc2)NC(=O)N(CC(=O)N2CC(=O)Nc3ccccc32)C1=O (centres undefined) the Potency was inconclusive: 0.0522 µM [inhibitor, full curve, poor fit]. For CCN1CCN(C(=O)CSc2cc(=O)n(CC)c3ccccc23)CC1, the Potency was inconclusive: 11.7 µM [inhibitor, single point]. With COc1ccc(Cc2nnc(SCC(=O)NC3(C#N)CCCCC3)n2N)cc1 the Potency was inconclusive: 18.5 µM [inhibitor, single point]. In the case of CCOC(=O)c1cn2nc(SCc3ccccc3)nc2nc1C, the “activity change, negative = inhibition” value is reported as inactive: 9.55%. For CCOc1cc(C(=O)N/N=C/c2ccoc2)cc(OCC)c1OCC, the Potency was inconclusive: 18.5 µM [inhibitor, single point]. With Cc1ccc(OCCSc2nnc(-c3cccs3)n2C)cc1 the Potency was inconclusive: 16.5 µM [inhibitor, partial curve, poor fit]. In the case of CCCC(=O)C1=C(O)C(C(=O)OC)C(C)(C)CC1=NCCc1ccccc1 (centres undefined), the Potency is reported as inconclusive: 18.5 µM [inhibitor, single point]. In the case of CCN(CC)CCCN=Cc1c(O)n(-c2ccccc2C)c(=O)c2ccccc12, the Potency is reported as inconclusive: 11.7 µM [inhibitor, single point]. In the case of CCN1CCN(C(=O)CNC(=O)c2nn(-c3ccc(OC)cc3)c(=O)c3ccccc23)CC1, the Potency is reported as active: 1.47 µM. In the case of CC(=O)c1ccc2c(c1)C1C(Cl)C(Sc3ccccc3[N+](=O)[O-])CC1C(C(=O)O)N2 (centres undefined), the Potency is reported as active: 2.62 µM. In the case of C/C(=N\NC(=O)Cc1ccc(Cl)cc1)c1ccccn1, the Potency is reported as inconclusive: 0.0074 µM [inhibitor, full curve]. For COc1ccc2nc(C)cc(SCC(=O)NNC(=O)COc3ccc(C)cc3)c2c1, the Potency was inconclusive: 0.104 µM [inhibitor, full curve, poor fit]. In the case of O=C(Nc1nc2ccccc2n1CCOc1ccccc1)c1ccco1, the Potency is reported as active: 2.94 µM. For COC(=O)NCCOC(=O)N(O)c1ccc(Br)cc1, the Potency was inconclusive: 8.28 µM [inhibitor, single point]. With O=C(CSc1nc2ccccc2o1)NCc1ccco1 the Potency was inconclusive: 9.28 µM [inhibitor, single point]. In the case of Nc1nc(NC(=O)c2ccccc2Cl)nn1-c1ccccc1, the Potency is reported as inconclusive: 0.0828 µM [inhibitor, full curve, poor fit]. In the case of CCC(C(=O)NNC(=O)c1cnccn1)c1ccccc1 (centres undefined), the Potency is reported as inconclusive: 18.5 µM [inhibitor, single point]. In the case of Cc1cccc(NC(=O)C(=O)NCCCN2CCOCC2)c1, the Potency is reported as inconclusive: 11.7 µM [inhibitor, single point]. For CCCc1nnc(NC(=O)CCC(=O)N2CCN(CCOC(c3ccccc3)c3ccccc3)CC2)s1, the Potency was inconclusive: 2.08 µM [inhibitor, full curve]. In the case of Cc1cccc(-c2noc(CCCC(=O)NCC3CCCO3)n2)c1 (centres undefined), the “activity change, negative = inhibition” value is reported as inactive: 11.4%. For CC(C)=CCN1CCN(Cc2ccc(C)s2)CC1CCO (centres undefined), the Potency was inconclusive: 18.5 µM [inhibitor, single point]. In the case of COc1ccc(C)cc1NC(=O)CCNS(=O)(=O)c1cccc(C(F)(F)F)c1, the “activity change, negative = inhibition” value is reported as inactive: -31.2%. In the case of CC(=O)N1c2ccccc2Oc2cc3ccccc3cc21, the Potency is reported as inconclusive: 14.7 µM [inhibitor, partial curve, poor fit]. With COc1ccc(OC)c(C=Nc2ccccc2-c2nc3ccccc3[nH]2)c1 the Potency was inconclusive: 18.5 µM [inhibitor, single point]. In the case of CCC(=O)Nc1ccc(N2CCCCC2)c(C(=O)Nc2ccc(OC)cc2)c1, the Potency is reported as inconclusive: 18.5 µM [inhibitor, single point]. For OCC(O)CN1CCN(c2ccccc2)CC1 (centres undefined), the Potency was inconclusive: 0.0151 µM [inhibitor, full curve]. In the case of COC(=O)c1cc2sccc2n1Cc1nc(-c2cccc(Cl)c2)oc1C, the Potency is reported as active: 9.28 µM. For Cc1cccc(N2CCN(CC(=O)NCc3ccccc3)CC2)c1C, the Potency was inconclusive: 18.5 µM [inhibitor, single point]. With Cc1cc(OCc2cc(C(=O)N(C)C(C)c3ccccn3)no2)cc(C)c1Cl (centres undefined) the “activity change, negative = inhibition” value was inactive: 5.05%. In the case of CCOc1ccc(C(=O)Nc2cc(Cl)ccc2-n2cncn2)cc1OC, the “activity change, negative = inhibition” value is reported as inactive: -2.8%. In the case of CC(=O)Nc1ccc(S(=O)(=O)NCC(=O)NNC(=O)COc2ccccc2Cl)cc1, the Potency is reported as inconclusive: 0.828 µM [inhibitor, partial curve, poor fit]. For CC(Sc1nc2c(c(=O)[nH]1)CCCC2)C(=O)Nc1ccccc1C#N (centres undefined), the “activity change, negative = inhibition” value was inactive: 2.32%. With CC(Sc1nc2sccc2c(=O)n1-c1ccccc1)C(N)=O (centres undefined) the Potency was active: 1.65 µM. For C=C1CCC[C@]2(C)C[C@H]3OC(=O)C(CN[C@@H](C)c4ccccc4)[C@H]3CC12 (some centres undefined), the Potency was inconclusive: 11.7 µM [inhibitor, partial curve]. In the case of CCC(=O)Nc1ccc(S(=O)(=O)NCCc2ccccc2)cc1, the Potency is reported as inconclusive: 16.5 µM [inhibitor, single point]. For CCc1ccc(CN2CCN(C(=O)c3ccco3)CC2)cc1, the “activity change, negative = inhibition” value was inactive: 5.2%. In the case of CN(CC(=O)Nc1cccc(F)c1)C(=O)CCC1CCCCC1, the Potency is reported as inconclusive: 13.1 µM [inhibitor, partial curve, poor fit]. In the case of C/C(=N\NC(N)=S)c1ccc2c(c1)OCCO2, the Potency is reported as inconclusive: 18.5 µM [inhibitor, single point]. For CCOC(=O)C(C)Sc1nnc2c3ccccc3n(C)c2n1 (centres undefined), the Potency was inconclusive: 11.7 µM [inhibitor, single point]. For CCC1CO/C(=C(\C(Cl)=C(Cl)Cl)[N+](=O)[O-])N1Cc1ccc(Cl)nc1 (centres undefined), the “activity change, negative = inhibition” value was inactive: 4.73%. For Cc1cccc(NC(=O)Cn2c(=O)n(Cc3ccco3)c(=N)c3c4c(sc32)COC(C)(C)C4)c1, the Potency was active: 8.28 µM. With CN(C)/C=C/C(=O)/C=C/c1cn(-c2ncc(C(F)(F)F)cc2Cl)c2ccccc12 the Potency was inconclusive: 8.28 µM [inhibitor, partial curve, poor fit]. With Cc1cccc(N(CC(=O)N/N=C/c2ccc(OCC(=O)NCc3ccco3)cc2)S(C)(=O)=O)c1C the Potency was inconclusive: 11.7 µM [inhibitor, partial curve, poor fit]. In the case of Cc1cc2oc(=O)cc(CN3CCOCC3)c2cc1C(C)C, the Potency is reported as inconclusive: 10.4 µM [inhibitor, single point]. For COC(=O)C1=C(c2cccc(C#N)c2)C[C@@H]2CC[C@H]1N2C(=O)NCCOc1ccc(OC)cc1, the “activity change, negative = inhibition” value was inactive: -17.1%. In the case of O=c1[nH]c(CN2CCN(c3ccccc3)CC2)nc2scc(-c3ccccc3)c12, the Potency is reported as inconclusive: 18.5 µM [inhibitor, partial curve, poor fit]. For CCOC(=O)[C@@H]1[C@H]2COc3ccccc3[C@H]2N2C(=O)N(c3ccc(C)cc3)C(=O)[C@]12C, the Potency was inconclusive: 18.5 µM [inhibitor, single point]. For COc1ccc(S(=O)(=O)N(C)C2(C)CCS(=O)(=O)C2)cc1OC (centres undefined), the “activity change, negative = inhibition” value was inactive: 0.546%. For CCCCNC(=O)NNC(=O)c1ccco1, the “activity change, negative = inhibition” value was inactive: -66%. With CCc1ccc(N/C(=N/c2nc(C)cc(C)n2)NC(C)=O)cc1 the Potency was inconclusive: 18.5 µM [inhibitor, single point]. With CNC(=S)N/N=C/c1c(C)c(C(=O)c2ccc(F)cc2)n2ccccc12 the Potency was active: 3.29 µM.
